# Assay results as given in PubChem BioAssay AID1259415 (National Center for Advancing Translational Sciences (NCATS), 2018).
# About 18,000 (4.4%) of roughly 410,000 compounds were called active. This list was built around the results that the source calls inconclusive (neither active nor inactive); the mix of calls is not that of the screen. Rule as the data show it: active = activity change below about -60%; inconclusive = no clear call, values can overlap the other calls; inactive = above about -39%.
# Assay: qHTS Assay for inhibitors of the human cytomegalovirus (HCMV)
# Conditions: HFF cells, HCMV-luciferase reporter, 72 h; at 57.5 µM; hits give low values
# Procedure, shortened: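 Human foreskin fibroblasts infected with luciferase-reporter HCMV at MOI 1 PFU/cell, compounds at two doses. Luciferase measured 72 h post infection; normalized to buffer-only basal and Salinomycin (10uM) controls.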
# % is scaled to controls: 0 for no effect and ±100 for the full control effect.
row,Structure (SMILES),"activity change, negative = inhibition"
1,O=S(=O)(c1cc(F)ccc1F)N1CCN(C2CCCCC2)CC1,inconclusive: -40.5%
2,Cc1cc(C)n2c(=S)[nH]nc2n1,inactive: 0.444%
3,O=c1cc(-c2ccccc2)c2cc(Cl)ccc2[nH]1,inconclusive: -49.5%
4,Cc1ccc(NC(=O)c2cnn3c2NC(c2ccccc2)=CC3c2ccccc2)cc1 (stereo not drawn),inconclusive: -48.6%
5,N#CCC(=O)Nc1sc2c(c1C(N)=O)CCCC2,active: -61.9%
6,CC1CC1C(=O)OCC(=O)Nc1ccc(S(=O)(=O)N2CCOCC2)cc1 (stereo not drawn),inactive: -13.2%
7,Cc1cc(C)n(-c2nc(NC(C)(C)C)nc(NC(C)(C)C)n2)n1,inconclusive: -53.8%
8,Cc1ccc(NC(=S)N2CCn3cccc3C2c2cccnc2)cc1 (stereo not drawn),inconclusive: -44.3%
9,COc1ccc(-c2nc(CSCC(=O)N3CCN(c4ccc(F)cc4)CC3)c(C)o2)cc1,active: -90.2%
10,COc1ccc(C(C)NC(=O)CC23CC4CC(CC(C4)C2)C3)cc1 (stereo not drawn),inactive: -33.7%
11,Cc1ccc(OCC(=O)Nc2ccncc2)c(C)c1,inconclusive: -43.9%
12,COC(=O)C1CCCN1C(C(=O)NC1CCCCC1)c1ccc(Cl)cc1 (stereo not drawn),inconclusive: -44.6%
13,CCn1c(COc2ccc(C)cc2)nnc1SCc1nc2ccccc2[nH]1,active: -64.9%
14,Fc1ccc(C2=CC(c3ccc(F)cc3)n3c(nc4ccccc43)N2)cc1 (stereo not drawn),inactive: 63.9%
15,Cc1cccc(-c2cc(C(=O)N3CCCc4ccccc43)c3ccccc3n2)c1,inactive: 42.1%
16,Clc1ccccc1Nc1nnc(-c2ccncc2)s1,inconclusive: -59.3%
17,COc1ccc(S(=O)(=O)NCCSc2nnnn2-c2ccccc2)cc1,inconclusive: -50.2%
18,NC(=O)C1CCN(C(=O)c2cccc(S(=O)(=O)N3CCCC3)c2)CC1,inactive: -2.19%
19,CCn1cc(C(=O)NCc2ccc(Cl)cc2)c(=O)c2cc(S(=O)(=O)N(C)C3CCCCC3)ccc21,inactive: -2.58%
20,COc1cccc(C(=O)Nc2nnc(-c3ccc(OC)cc3OC)s2)c1,inconclusive: -55.9%

row,Structure (SMILES),"activity change, negative = inhibition"
1,Cc1cccc(CCN2C(Nc3ccccc3)=NC[C@@H]2CC(C)C)c1,inconclusive: -40.1%
2,Cc1ncc(CO)c(/C=N/NC(=O)c2cc3c(s2)CCCC3)c1O,active: -65.9%
3,Cc1ccc(C(=O)NC(=S)NCC2CCCO2)cc1[N+](=O)[O-] (stereo not drawn),inconclusive: -46.1%
4,COc1ccc(-n2c(SCC(=O)NCc3ccc(C)cc3)nc3n[nH]c(C)c3c2=N)cc1,inactive: 33.3%
5,CCN(c1ccccc1)S(=O)(=O)c1ccc(C(=O)Nc2nnc(C3CC3)o2)cc1,active: -69%
6,COc1ccc(CCN2CC(C(=O)Nc3cc(F)ccc3F)CC2=O)cc1OC (stereo not drawn),inactive: 10.6%
7,CCNC(=S)N/N=C/c1ccc(F)cc1,inactive: 13.5%
8,O=C(Nc1nc(-c2ccccn2)cs1)c1ccc([N+](=O)[O-])o1,inactive: 44.7%
9,O=C(NS(=O)(=O)Nc1ccc(Cl)cc1)c1c[nH]c2ccccc12,inactive: -7.95%
10,CN1OC[C@@H]2CN(C(=O)Nc3ccccc3)[C@H](c3ccc(N4CCCCC4)cc3)C[C@@H]21,inactive: -4.4%
11,COc1cc(OC)c(C(=O)N/N=C/c2ccoc2)cc1OC,active: -68.8%
12,COc1ccccc1N(CC(=O)Nc1ccc(Br)cc1F)S(=O)(=O)c1cccs1,inconclusive: -41%
13,CN(C)C(/C=C/Nc1ccc(F)cc1F)=C(C#N)C#N,inconclusive: -47.2%
14,COc1ccc(Cl)cc1C(=O)Nc1cccc(-c2ccc3nncn3n2)c1,inconclusive: -41.4%
15,Cc1ccc(C)c(SCC(=O)Nc2nnc(-c3ccccc3)o2)c1,inactive: 13.2%
16,COc1cc(CC(=O)Nc2ccc3c(c2)CCC3)cc(OC)c1OC,inconclusive: -58.9%
17,O=C(NCCCl)NNc1c(Cl)cc(Cl)cc1Cl,inactive: -8.97%
18,O=C(Cn1cnc2ccc(Cl)cc2c1=O)NC1CCS(=O)(=O)C1 (stereo not drawn),inactive: 6.92%
19,Cc1ccccc1-c1nnn(CC(=O)Nc2sc3c(c2C#N)CCC(C(C)(C)C)C3)n1 (stereo not drawn),inactive: 0.188%
20,O=C1Nc2ccc([N+](=O)[O-])cc2C1(O)N1CCCCC1 (stereo not drawn),inactive: 19.5%

# 16 structures from above, ordered by heavy-atom count, ascending:
row,Structure (SMILES),"activity change, negative = inhibition"
2,Cc1cc(C)n2c(=S)[nH]nc2n1,inactive: 0.444%
7,CCNC(=S)N/N=C/c1ccc(F)cc1,inactive: 13.5%
17,O=C(NCCCl)NNc1c(Cl)cc(Cl)cc1Cl,inactive: -8.97%
3,O=c1cc(-c2ccccc2)c2cc(Cl)ccc2[nH]1,inconclusive: -49.5%
16,Clc1ccccc1Nc1nnc(-c2ccncc2)s1,inconclusive: -59.3%
13,CN(C)C(/C=C/Nc1ccc(F)cc1F)=C(C#N)C#N,inconclusive: -47.2%
11,COc1cc(OC)c(C(=O)N/N=C/c2ccoc2)cc1OC,active: -68.8%
1,O=S(=O)(c1cc(F)ccc1F)N1CCN(C2CCCCC2)CC1,inconclusive: -40.5%
2,Cc1ncc(CO)c(/C=N/NC(=O)c2cc3c(s2)CCCC3)c1O,active: -65.9%
18,NC(=O)C1CCN(C(=O)c2cccc(S(=O)(=O)N3CCCC3)c2)CC1,inactive: -2.19%
12,COC(=O)C1CCCN1C(C(=O)NC1CCCCC1)c1ccc(Cl)cc1 (stereo not drawn),inconclusive: -44.6%
14,COc1ccc(Cl)cc1C(=O)Nc1cccc(-c2ccc3nncn3n2)c1,inconclusive: -41.4%
15,Cc1cccc(-c2cc(C(=O)N3CCCc4ccccc43)c3ccccc3n2)c1,inactive: 42.1%
4,Cc1ccc(NC(=O)c2cnn3c2NC(c2ccccc2)=CC3c2ccccc2)cc1 (stereo not drawn),inconclusive: -48.6%
9,COc1ccc(-c2nc(CSCC(=O)N3CCN(c4ccc(F)cc4)CC3)c(C)o2)cc1,active: -90.2%
19,CCn1cc(C(=O)NCc2ccc(Cl)cc2)c(=O)c2cc(S(=O)(=O)N(C)C3CCCCC3)ccc21,inactive: -2.58%

# Going on with the list.

row,Structure (SMILES),"activity change, negative = inhibition"
1,O=C(c1cc2sccc2n1Cc1ccc(F)cc1)N1CCN(c2nc3ccccc3s2)CC1,inconclusive: -43.3%
2,CCN1CCN(c2c(Cl)cccc2NC(=O)c2ccc(Br)o2)CC1,inconclusive: -49.3%
3,C=CCN(C(=O)c1csnn1)C(C(=O)NC1CCCCC1)c1ccc(F)cc1 (stereo not drawn),inactive: -14.6%
4,CCc1ccc(C2NC(=S)NC3=C2C(=O)CC(C)(C)C3)cc1 (stereo not drawn),inactive: -21.3%
5,CCOc1cc(C2c3c(n[nH]c3C)C(=O)N2c2ccc(Br)cc2)ccc1O (stereo not drawn),inconclusive: -45.6%
6,COc1ccc(-c2[nH]c(-c3ccccc3)nc2SCC(=O)Nc2nccs2)cc1,inconclusive: -42.1%
7,O=C(c1ccc2ccccc2c1)N1CCN(c2ccc([N+](=O)[O-])c(N3CCOCC3)c2)CC1,inactive: -11.8%
8,CCOCCCNC(=O)c1cc(Sc2ccc(C)cc2)nc2ccccc12,active: -60.4%
9,COc1cccc(Nc2nc(N)c([N+](=O)[O-])c(NCc3ccccc3)n2)c1,inconclusive: -58.4%
10,COC(=O)c1cccc(/C=N/NC(N)=S)c1O,inconclusive: -54.2%
11,CCCCCn1c(=O)c(C(=O)NCc2ccccn2)c(O)c2ccccc21,inconclusive: -52.1%
12,CC(=O)n1cc(-c2ccncc2)c2ccccc21,active: -93.6%
13,O=C(CSc1nnc(C2CC2)n1-c1ccccc1)NCc1ccco1,inactive: 22.4%
14,O=C(O)CC1S/C(=N\N=C2CCCCCCC2)N(c2ccccc2)C1=O (stereo not drawn),active: -104%
15,COc1ccccc1C(=O)Nc1cccc(NC(=O)c2ccccc2C)c1,inconclusive: -49.3%
16,O=C(c1cccc(Oc2c(Cl)cccc2[N+](=O)[O-])c1)N1CCCCC1,inconclusive: -45%
17,CCc1ccc(S(=O)(=O)Nc2ccc(O)c3ccccc23)cc1,inconclusive: -43.5%
18,O=C(CCn1cnc2ccccc2c1=O)Nc1cccc(Cl)c1,inactive: 0.835%
